Laboratory results taken from patent publication US9382213B2, “Heterocyclic and cyclic analogs of propargyl-linked inhibitors of dihydrofolate reductase” (PROMILIAD BIOPHARMA INC., priority 2014, dated 2016).
Some results were stated once for a whole list of compounds, not compound by compound.

System: C. glabrata (strain NCCLS84)
Test: Antifungal activity (MIC), XTT cell viability
Format: cell-based, Candida glabrata
Conditions: strain NCCLS84, GSB media
Method: Stock cultures of C. albicans (strain SC5314) or C. glabrata (strain NCCLS84), thawed from storage in 50% glycerol at −80° C., were streaked on YM agar plates and grown at 37° C. for 48 hours. Isolated colonies from the plate were suspended in 100 mL of glucose-salt-biotin (GSB) media containing ammonia chloride (2 g), potassium phosphate (0.35 g), magnesium sulfate (0.24 g), sodium citrate (0.3 g), piperazine-N,N′-bis[2-ethanesulfonic acid] (3.4 g), biotin (40 mg) and glucose (20 g) in 1 L of water at a final pH of 7.1. […] An aliquot was removed from the shake flask culture, diluted to between 1×10^5 and 1×10^6 cells/mL in GSB media, and added to 96 well test plates (100 μL per well) containing test compounds dispensed in DMSO (1 μL). Amphotericin B and itraconazole were used as controls. C. albicans cell viability was determined by the addition of Alamar Blue (10 μL) to each well after a 24 hour incubation period. […] The XTT Cell Proliferation kit (ATCC) was used as an alternative. Tetrazolium dye, XTT, along with an electron activating reagent (50 μL) was added to 96 well plates and incubated for 24 hours at 37° C. Cell viability is indicated by a color change from a dark orange to a bright orange color that can be detected at […].

CCc1nc(N)nc(N)c1C#CC(C)c1ccc(-c2ccccc2)nc1 (centres unmarked) [Compound 46, 6-Ethyl-5-[3-(6-phenyl-pyridin-3-yl)-but-1-ynyl]-pyrimidine-2,4-diamine] was tested, and the “MIC C. glabrata” value (listed as compound 46) was 0.2 to 0.78 µg/mL.

CCc1nc(N)nc(N)c1C#CC(C)c1cnc(-c2ccccc2)nc1 (centres unmarked) [Compound 48, 6-Ethyl-5-[3-(2-phenyl-pyrimidin-5-yl)-but-1-ynyl]-pyrimidine-2,4-diamine] was tested, and the “MIC C. glabrata” value (listed as compound 48) was 0.2 to 0.78 µg/mL.
